Test results: PubChem BioAssay AID1347076 (National Center for Advancing Translational Sciences (NCATS), 2019)
Among all 400,000 compounds or so, about 13,000 (3.2%) were called active. Inconclusive means that the source gave no clear call. Such entries were picked first, then a sample of the others. The call rests on the fitted dose curve; in most records, active means well fitted cell-killing curve with a large enough effect; inconclusive means small, poorly fitted or top-dose-only effect, or effect the other way; inactive means flat fitted curve, though single readings scatter. Where the call is inconclusive, the potency comes from a doubtful curve fit.

Assay: qHTS assay for MDR1-selective chemotherapeutics: Primary screen using the drug-selected MDR subline cells KB-V1; further: nearly all actives have a fitted effect of over 60% in size
Settings: KB-V1 MDR cells viability, CellTiter-Glo, 72 h; activity change, negative = cytotoxicity: at 46.1 µM (top of the series)
Procedure, shortened: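 In this primary screen, KB-V1 cells overexpressing P-gp are incubated with library compounds (lowest to highest concentration) for 72 h at 37 degrees C before a luminescent ATP viability read.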
On the % scale 0 is the no-effect control and ±100 the full control effect; potency means the concentration at half of the fitted maximal effect.

SMILES	activity change, negative = cytotoxicity	Potency
COc1cc(OC)c(C(=O)Nc2cc(Cl)ccc2-n2cncn2)cc1OC	inactive: -8%	–
COc1ccc(C(=O)NC2CC2)cc1OC1CCN(Cc2ccc(NC(C)=O)cc2)CC1	–	inconclusive: 13 µM [rising, partial curve, poor fit]
CCc1ccccc1NC(=O)CCNC(=O)Cn1ccc2ccccc2c1=O	inactive: 12.6%	–
O=[N+]([O-])c1ccc(O)c(-c2cc(C(F)(F)F)nc(-c3ccccc3)n2)c1	–	inconclusive: 5.8 µM [cytotoxic, full curve, poor fit]
CN(C)S(=O)(=O)c1ccc(Cl)c(C(=O)OCC(=O)c2ccco2)c1	–	inconclusive: 29.1 µM [rising, single point]
COCC(C)n1c(C)cc(C(=O)COC(=O)c2cc(=O)[nH]c3ccccc23)c1C (stereo not drawn)	–	active: 20.6 µM
COc1ccc(/C(N)=N/OC(=O)Cc2ccc(OC)c(OC)c2)cc1	–	active: 8.2 µM
O=C(Nc1ncc(S(=O)(=O)c2ccc([N+](=O)[O-])cc2)s1)c1cccnc1	inactive: 27%	–
O=C(NC1CCCCC1)c1noc2c1CCCCC2	–	inconclusive: 16.4 µM [cytotoxic, partial curve, poor fit]
Cc1ccc(NS(=O)(=O)c2csc(C(N)=O)c2)cc1C	inactive: 7.63%	–
O=C(CSc1ncnc2c1cnn2-c1ccccc1)Nc1ccc2c(c1)OCO2	inactive: 0%	–
Fc1ccc(-c2nc(-c3cccs3)[nH]c2-c2ccc(F)cc2)cc1	–	active: 16.4 µM
C[C@@H]1CN([C@H](C)CO)C(=O)CCCn2nncc2CO[C@H]1CN(C)Cc1ccccc1	inactive: 0.15%	–
CCOC(=O)c1ccc(NC(=O)C2=C(C)C(=O)OC23CCN(C(C)C)CC3)cc1	inactive: 5.09%	–
CCN(C(=O)COC(=O)c1ccccc1Oc1ccccc1)c1c(N)n(Cc2ccccc2)c(=O)[nH]c1=O	inactive: -15.4%	–
Cc1ccc(-n2ncc(C(=O)NCCN3CCC(Cc4ccccc4)CC3)c2C2CCN(C(=O)OC(C)(C)C)CC2)cc1	inactive: -26.8%	–
O=C(NCC(c1cccnc1)N1CCc2ccccc21)c1ccc(Cl)cc1 (stereo not drawn)	–	inconclusive: 4.61 µM [cytotoxic, partial curve, poor fit]
CNC(=O)c1ccc(Nc2nc(-c3ccccc3)nc3ccccc23)cc1	–	inconclusive: 18.4 µM [cytotoxic, single point]
COc1ccc(S(=O)(=O)N2CCN(C(=O)c3cc(C)oc3C)CC2)cc1OC	inactive: -3.34%	–
Cc1nnc(SC(C)C(=O)N2CCc3ccccc32)s1 (stereo not drawn)	–	inconclusive: 18.4 µM [cytotoxic, single point]
CSc1nnc(-c2ccccc2N=Cc2c(C)[nH]n(-c3ccccc3)c2=O)c(=O)[nH]1	inactive: -3.58%	–
COc1ccc(NC2=C(Cl)C(=O)N(CCc3ccccc3)C2=O)c(OC)c1	–	active: 13 µM
CCCn1c(SCc2nc(-c3cccs3)no2)nnc1-c1ccncc1	–	inconclusive: 16.4 µM [cytotoxic, partial curve, poor fit]
COCCn1c(SCC(=O)N2CC(C)OC(C)C2)nc2c([nH]c3ccccc32)c1=O (stereo not drawn)	inactive: -11.6%	–
Cc1ccc(CC2CC(=O)N(c3ccc(Cl)cn3)C2=O)cc1 (stereo not drawn)	inactive: 0%	–

Copied from the list:
O=[N+]([O-])c1ccc(O)c(-c2cc(C(F)(F)F)nc(-c3ccccc3)n2)c1 | Potency: inconclusive: 5.8 µM [cytotoxic, full curve, poor fit]
O=C(NCC(c1cccnc1)N1CCc2ccccc21)c1ccc(Cl)cc1 (stereo not drawn) | Potency: inconclusive: 4.61 µM [cytotoxic, partial curve, poor fit]
CNC(=O)c1ccc(Nc2nc(-c3ccccc3)nc3ccccc23)cc1 | Potency: inconclusive: 18.4 µM [cytotoxic, single point]

Continued:

SMILES	activity change, negative = cytotoxicity	Potency
CCOC(=O)c1ccc(Nc2cc(C)nc(-c3ccccc3O)n2)cc1	inactive: -9.27%	–
Cn1ncc(Cl)c1C(=O)N1CCN(S(=O)(=O)c2cccs2)CC1	inactive: -13.8%	–
COc1ccc(/C=C2\SC(=Nc3ccccc3OC)NC2=O)cc1	–	inconclusive: 29.1 µM [cytotoxic, single point]
CSC(=NC(C)c1ccccc1)NS(=O)(=O)c1cccs1 (stereo not drawn)	–	active: 23.1 µM
COC(=O)c1sccc1NC(=O)c1c(Cl)cnn1C	inactive: 0%	–
CC1CCN(S(=O)(=O)c2cc(C(=O)N3CCN(c4ccccc4)CC3)ccc2Br)CC1	–	inconclusive: 6.51 µM [cytotoxic, full curve]
O=C(c1ccc(CNS(=O)(=O)c2ccccc2)cc1)N1CCN(c2ccccn2)CC1	–	inconclusive: 23.1 µM [cytotoxic, single point]
COc1ccc(NS(=O)(=O)c2c(C)[nH]c(=O)[nH]c2=O)cc1OC	–	inconclusive: 20.6 µM [rising, single point]
COc1cc(C(=O)Oc2cccc(Nc3ncnc4ccccc34)c2)cc(OC)c1OC	–	inconclusive: 14.6 µM [cytotoxic, partial curve, poor fit]
CS(=O)(=O)N1CCC(Oc2cccc(C(=O)NCCCC3CCCC3)c2)CC1	inactive: -28.9%	–
CN(C)CCN1CCN(c2cc(-c3cccc(Cl)c3)nc3ccnn23)CC1	inactive: 7.25%	–
CC[N+](C)(CC)CCC(c1ccccc1)C1CCCCC1 (stereo not drawn)	–	inconclusive: 0.58 µM [rising, full curve]
COc1ccc(C)cc1S(=O)(=O)N(C)CC(=O)NCc1ccncc1	inactive: -2.78%	–
Clc1ccc(N2N=C(c3cccs3)CC2c2ccco2)cc1 (stereo not drawn)	inactive: -1.8%	–
CCOC(=O)c1[nH]c(C)c(CN(C(C)=O)c2ccc(OCC)cc2)c1C	–	inconclusive: 18.4 µM [cytotoxic, single point]
Cc1ccc(NC(=O)COC(=O)c2csc3c2CCC(C)C3)cc1S(=O)(=O)N1CCCCC1 (stereo not drawn)	–	inconclusive: 20.6 µM [cytotoxic, partial curve, poor fit]
O=C(Nc1cccs1)N1CCN(c2ncccn2)CC1	–	inconclusive: 29.1 µM [rising, single point]
O=C(CCNS(=O)(=O)c1ccc2c(c1)CCN2C(=O)C1CC1)Nc1ccc(OC(F)(F)F)cc1	–	inconclusive: 18.4 µM [rising, single point]
Cc1c(/C(O)=C2/C(=O)C(=O)N(CCN3CCOCC3)C2c2cccs2)cnn1-c1ccccc1 (stereo not drawn)	–	inconclusive: 5.8 µM [rising, partial curve]
Cc1cc2cc(C(c3nnnn3Cc3ccccc3)N3CCc4ccccc43)c(=O)[nH]c2cc1C (stereo not drawn)	–	active: 8.2 µM
COc1ccc(NCc2ccc([N+](=O)[O-])s2)cc1	inactive: 0.415%	–
O=C(CCN1C(=O)/C(=C\c2cccc(Br)c2)SC1=S)NCCCN1CCOCC1	inactive: 5.21%	–
CCC(C)NC(=O)Cn1ccc2cc(S(=O)(=O)N3CCCCCC3)ccc21 (stereo not drawn)	–	inconclusive: 18.4 µM [cytotoxic, single point]
CS(=O)(=O)N(CC(=O)NC1CC2CCC1C2)c1ccc(Oc2ccccc2)cc1 (stereo not drawn)	–	inconclusive: 20.6 µM [cytotoxic, single point]
CC(C)Cn1c(N)c(C(=O)NCCN2CCOCC2)c2nc3ccccc3nc21	–	active: 23.1 µM

SMILES	activity change, negative = cytotoxicity	Potency
N#Cc1c(N)n(C2CCCCC2)c2nc3ccccc3nc12	–	inconclusive: 29.1 µM [cytotoxic, single point]
O=C(C1CCCC1)N1CCN(S(=O)(=O)c2ccc(F)cc2)CC1	–	inconclusive: 29.1 µM [cytotoxic, single point]
CCc1ccc2oc(-c3cc(NC(=O)c4cccs4)ccc3Cl)nc2c1	–	inconclusive: 25.9 µM [cytotoxic, single point]
COc1cccc(CNc2nc3cc(-c4ccc(F)cc4)sc3c(=O)n2C)c1OC	inactive: -6.97%	–
COc1ccc(-c2c(C)nc(N)nc2-c2ccc(OC)cc2O)cc1	inactive: -9.64%	–
O=c1c2ccccc2nc(/C=C/c2ccc(Br)cc2)n1CCCO	–	inconclusive: 25.9 µM [cytotoxic, partial curve, poor fit]
CCOC(=O)c1c(C)nc2sc3c(c2c1-c1ccc(OC)cc1)NC(c1ccccc1)NC3=O (stereo not drawn)	inactive: -14.9%	–
CCOC(=O)c1c(-c2ccc(OC)cc2)csc1NC(=O)CSc1ccccc1	inactive: -5.47%	–
COc1cccc(NC(=O)CSc2nnnn2C2CCCC2)c1	–	inconclusive: 0.092 µM [rising, full curve]
Cc1ccc(-c2csc(Cc3nc(-c4cc5ccccc5oc4=O)cs3)n2)cc1	–	inconclusive: 23.1 µM [cytotoxic, single point]
NCC12CC3CC(C1)CC(c1ccc(Br)cc1)(C3)C2	inactive: 3.86%	–
Cc1nnc(NC(=O)c2cccc(S(=O)(=O)N3CCN(C)CC3)c2)s1	–	inconclusive: 18.4 µM [rising, single point]
CCOc1ccc2nc(NC3=NC(C)(C)C=C(C)N3)nc(C)c2c1	–	inconclusive: 29.1 µM [cytotoxic, single point]
COc1ccc(OCC(=O)NNC(=S)NC(=O)c2ccc(Br)o2)cc1	–	inconclusive: 8.2 µM [cytotoxic, partial curve, poor fit]
COc1cccc(NC(=O)C2CCCN(c3ncnc4onc(C)c34)C2)c1 (stereo not drawn)	–	inconclusive: 10.3 µM [cytotoxic, partial curve, poor fit]
CCCC(=O)N1CCN(c2nc(CC(C)C)c3c(c2C#N)CCC3)CC1	–	inconclusive: 8.2 µM [cytotoxic, partial curve, poor fit]
CC[C@H](C)[C@@H](C(=O)NCCCCCCCCCCC(=O)N1CCNCC1)n1cc(CCCCCN)nn1	–	inconclusive: 29.1 µM [rising, single point]
Cc1ccnc(NC(=O)Cn2c(=O)oc3ccccc32)c1	–	inconclusive: 20.6 µM [rising, single point]
O=c1ccc2cc(S(=O)(=O)N3CCN(c4ccccc4F)CC3)ccc2o1	–	inconclusive: 9.2 µM [cytotoxic, partial curve]
CC(C)COC(=O)N1CCCC1C(=O)O (stereo not drawn)	inactive: 3.18%	–
CCOC(=O)c1sc(NC(=O)CC(C)c2ccccc2)nc1C (stereo not drawn)	–	inconclusive: 4.61 µM [cytotoxic, single point]
CN1c2ccccc2N(C)C1c1c(O)ccc2ccccc12	–	inconclusive: 10 µM [rising, partial curve]
CCOC(=O)[C@]12CCCC=C1N(Cc1cccc3ccccc13)C(=O)[C@H](CC(=O)NCc1ccc(OC)c(OC)c1)C2	–	active: 6.51 µM
